PubChem BioAssay AID1224830 | NIAID – 2016
The whole screen tested about 18,000 reagents; this is an unselected part. About 2,900 of them (16%) were called active. 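Calls are made per well; low scores hint the gene aids the LPS response, high scores that it dampens it.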 Repeated entries: four replicate wells of each siRNA pool.

- Test: 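Host factors that control LPS-induced TNF expression in human macrophages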 (primary screen)
- System: human THP-1 monocytic leukaemia cells, TNF dual-luciferase reporter clone, PMA-differentiated to macrophage-like cells
- Knock-down reagent: siRNA pool against human genes, 50 nM
- Time to read-out: LPS for 4 h, given about 3 days after siRNA transfection
- Conditions: bacterial LPS (TLR4 ligand), 10 ng/ml
- Measurement: 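Ratio of firefly to renilla light, scaled to the plate median and expressed as a robust z-score per replicate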
- Direction: TNF reporter robust z-score: higher = stronger TNF reporter response to LPS
- Call rule: 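a well is active when its z-score exceeds 2.8 or falls below -1.5; control wells carry no call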

| target gene | TNF reporter robust z-score | Outcome |
| --- | --- | --- |
| RXFP3 | -0.04 | inactive |
| RXFP3 | -0.8 | inactive |
| RXFP3 | 0.63 | inactive |
| RXFP3 | -0.39 | inactive |
| ZC2HC1C | -0.86 | inactive |
| ZC2HC1C | -0.42 | inactive |
| ZC2HC1C | -0.64 | inactive |
| ZC2HC1C | -1.02 | inactive |
| RAP2A | -1.06 | inactive |
| RAP2A | -0.14 | inactive |
| RAP2A | -0.97 | inactive |
| RAP2A | -0.4 | inactive |
| OR5J2 | -0.47 | inactive |
| OR5J2 | 0.3 | inactive |
| OR5J2 | 0.07 | inactive |
| OR5J2 | -0.52 | inactive |
| DEFB135 | -0.37 | inactive |
| DEFB135 | 0.03 | inactive |
| DEFB135 | -0.23 | inactive |
| DEFB135 | -1.12 | inactive |
| MAP6D1 | 0.35 | inactive |
| MAP6D1 | -0.17 | inactive |
| MAP6D1 | -0.14 | inactive |
| MAP6D1 | -0.23 | inactive |
| PBX2 | -0.71 | inactive |
| PBX2 | -0.48 | inactive |
| PBX2 | -0.94 | inactive |
| PBX2 | -0.83 | inactive |
| ZIC2 | -0.8 | inactive |
| ZIC2 | -0.54 | inactive |
| ZIC2 | -1.18 | inactive |
| ZIC2 | 0.24 | inactive |
| DARS2 | – | inactive |
| VHL | -0.63 | inactive |
| VHL | -0.36 | inactive |
| VHL | 0.17 | inactive |
| VHL | -1.06 | inactive |
| NUTF2 | 1.38 | inactive |
| NUTF2 | 0.77 | inactive |
| NUTF2 | 1.89 | inactive |
| NUTF2 | 0.34 | inactive |
| TMEM167A | -0.8 | inactive |
| TMEM167A | -0.66 | inactive |
| TMEM167A | -0.06 | inactive |
| TMEM167A | -0.38 | inactive |
